The other results are listed elsewhere or left out.
Columns and labels:
Test in all cases: glycan array binding signal (z-score within array); higher = stronger binding
Conditions in all cases: glycan notation: IUPAC condensed, linker removed
[1] = target: GalNAc3S(b1-4)[Fuc(a1-3)]GlcNAc
How it was run: (§1)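 The Consortium for Functional Glycomics database supplied 3228 glycan arrays, of which those lacking an available protein sequence were dropped. The binding signal, a within-array Z-score, was averaged across arrays of the same protein sequence and across linkers. Negative scores can be read as non-binding.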

GalNAc4S6S(b1-4)GlcNAc = target: GalNAc4S6S(b1-4)GlcNAc
How it was run: as §1

GalNAc6S(b1-4)GlcNAc = target: GalNAc6S(b1-4)GlcNAc
How it was run: as §1

Glc(a1-4)Glc = target: Glc(a1-4)Glc
How it was run: as §1

[2] = target: Glc(a1-4)Glc(a1-4)Glc(a1-4)Glc
How it was run: as §1

Glc(a1-6)Glc(a1-6)Glc = target: Glc(a1-6)Glc(a1-6)Glc
How it was run: as §1

[3] = target: Glc(a1-6)Glc(a1-6)Glc(a1-6)Glc
How it was run: as §1

Glc(b1-4)Glc = target: Glc(b1-4)Glc
How it was run: as §1

Glc(b1-6)Glc = target: Glc(b1-6)Glc
How it was run: as §1

GlcA(b1-3)Gal = target: GlcA(b1-3)Gal
How it was run: as §1

GlcA(b1-3)GlcNAc = target: GlcA(b1-3)GlcNAc
How it was run: as §1

GlcA(b1-6)Gal = target: GlcA(b1-6)Gal
How it was run: as §1

[4] = target: GlcA3S(b1-3)Gal(b1-4)GlcNAc(b1-2)Man
How it was run: as §1

[5] = target: GlcA3S(b1-3)Gal(b1-4)GlcNAc(b1-3)Gal(b1-4)Glc
How it was run: as §1

[6] = target: GlcNAc(a1-3)Gal(b1-4)GlcNAc
How it was run: as §1

[7] = target: GlcNAc(a1-4)Gal(b1-3)GlcNAc
How it was run: as §1

[8] = target: GlcNAc(a1-4)Gal(b1-4)GalNAc
How it was run: as §1

[9] = target: GlcNAc(a1-4)Gal(b1-4)GlcNAc
How it was run: as §1

[10] = target: GlcNAc(a1-4)Gal(b1-4)GlcNAc(b1-3)Gal(b1-4)Glc
How it was run: as §1

[11] = target: GlcNAc(a1-4)Gal(b1-4)GlcNAc(b1-3)Gal(b1-4)GlcNAc
How it was run: as §1

[12] = target: GlcNAc(a1-4)Gal(b1-4)GlcNAc(b1-3)Gal(b1-4)GlcNAc(b1-3)Gal(b1-4)GlcNAc
How it was run: as §1

[13] = target: GlcNAc(a1-4)Gal(b1-4)GlcNAc(b1-3)Gal(b1-4)[Fuc(a1-3)]GlcNAc(b1-3)Gal(b1-4)[Fuc(a1-3)]GlcNAc
How it was run: as §1

[14] = target: GlcNAc(a1-6)Gal(b1-4)GlcNAc
How it was run: as §1

[15] = target: GlcNAc(b1-2)Gal(b1-3)GalNAc
How it was run: as §1

[16] = target: GlcNAc(b1-2)Man(a1-3)[GlcNAc(b1-2)Man(a1-6)]Man(b1-4)GlcNAc(b1-4)GlcNAc
How it was run: as §1

[17] = target: GlcNAc(b1-2)Man(a1-3)[GlcNAc(b1-2)Man(a1-6)]Man(b1-4)GlcNAc(b1-4)[Fuc(a1-6)]GlcNAc
How it was run: as §1

[18] = target: GlcNAc(b1-2)Man(a1-3)[GlcNAc(b1-4)][GlcNAc(b1-2)Man(a1-6)]Man(b1-4)GlcNAc(b1-4)GlcNAc
How it was run: as §1

[19] = target: GlcNAc(b1-2)Man(a1-3)[GlcNAc(b1-4)][GlcNAc(b1-2)Man(a1-6)]Man(b1-4)GlcNAc(b1-4)[Fuc(a1-6)]GlcNAc
How it was run: as §1

[20] = target: GlcNAc(b1-2)[GlcNAc(b1-4)]Man(a1-3)[GlcNAc(b1-2)Man(a1-6)]Man(b1-4)GlcNAc(b1-4)GlcNAc
How it was run: as §1

[21] = target: GlcNAc(b1-2)[GlcNAc(b1-4)]Man(a1-3)[GlcNAc(b1-4)][GlcNAc(b1-2)Man(a1-6)]Man(b1-4)GlcNAc(b1-4)GlcNAc
How it was run: as §1

[22] = target: GlcNAc(b1-2)[GlcNAc(b1-4)]Man(a1-3)[GlcNAc(b1-4)][GlcNAc(b1-2)[GlcNAc(b1-6)]Man(a1-6)]Man(b1-4)GlcNAc(b1-4)GlcNAc
How it was run: as §1

[23] = target: GlcNAc(b1-2)[GlcNAc(b1-4)]Man(a1-3)[GlcNAc(b1-4)][GlcNAc(b1-2)[GlcNAc(b1-6)]Man(a1-6)]Man(b1-4)GlcNAc(b1-4)[Fuc(a1-6)]GlcNAc
How it was run: as §1

[24] = target: GlcNAc(b1-2)[GlcNAc(b1-6)]Man(a1-6)[GlcNAc(b1-2)Man(a1-3)]Man(b1-4)GlcNAc(b1-4)GlcNAc
How it was run: as §1

[25] = target: GlcNAc(b1-2)[GlcNAc(b1-6)]Man(a1-6)[GlcNAc(b1-2)Man(a1-3)]Man(b1-4)GlcNAc(b1-4)[Fuc(a1-6)]GlcNAc
How it was run: as §1

[26] = target: GlcNAc(b1-2)[GlcNAc(b1-6)]Man(a1-6)[GlcNAc(b1-4)][GlcNAc(b1-2)Man(a1-3)]Man(b1-4)GlcNAc(b1-4)GlcNAc
How it was run: as §1

GlcNAc(b1-3)Fuc = target: GlcNAc(b1-3)Fuc
How it was run: as §1

GlcNAc(b1-3)Gal = target: GlcNAc(b1-3)Gal
How it was run: as §1

[27] = target: GlcNAc(b1-3)Gal(b1-3)GalNAc
How it was run: as §1

B1: truncCC1G-10077 (Coprinopsis cinerea) (protein)
chain: MHHHHHHHHPLPSPGPGWVLIQNGGTGKFLCSTPSGDIGTADGPETVYDYSVQWRFIQREYTGVYHVVNRATGAYLRQIGTSMPSIGLAEENDDELKDWWMLETYDNSEIGLASIISRWTGNVLDHYGGVSVQALDNNTENSYRSWAIIPARDWLTSFSLVNGQGGLCLAAQYAREETRLSTTANVNDFHAQWVFRKPSGSSGYTIQNKYNNHYVGGTSARWELVVCCNKYFGIRNTSTQKYLAIEDGQVTFQDQDMTDRKQCWELCSGRATDTSGNDYDLIYMDDDLLEVMIPWVGDKQGDLKHYIEKRATKKPPKDKGGWQLPAAGLIKKPKFNDIRQLLQELIEQWEWDVVNEEREQIQTLVSIDEAEARRLLGRRPHPDIVAAYQRSRSSTLFRIDRQGYFNIAGDRYVNIQGQYGDDSYFHIALPVGVRFGREQIRRFLRDSLDRSTSVTITPTTCKPPSGGPDYNRDPDSDGDNSWIKWTIAVVGTSAIKHSEL
glycan array binding signal (z-score) [1]: 0.195
glycan array binding signal (z-score) (GalNAc4S6S(b1-4)GlcNAc): -0.763
glycan array binding signal (z-score) (GalNAc6S(b1-4)GlcNAc): -0.733
glycan array binding signal (z-score) (Glc(a1-4)Glc): -0.018
glycan array binding signal (z-score) [2]: 0.643
glycan array binding signal (z-score) (Glc(a1-6)Glc(a1-6)Glc): 0.83
glycan array binding signal (z-score) [3]: 0.056
glycan array binding signal (z-score) (Glc(b1-4)Glc): 0.542
glycan array binding signal (z-score) (Glc(b1-6)Glc): -0.333
glycan array binding signal (z-score) (GlcA(b1-3)Gal): -0.553
glycan array binding signal (z-score) (GlcA(b1-3)GlcNAc): -0.805
glycan array binding signal (z-score) (GlcA(b1-6)Gal): 4.61
glycan array binding signal (z-score) [4]: -0.28
glycan array binding signal (z-score) [5]: 0.341
glycan array binding signal (z-score) [6]: -0.945
glycan array binding signal (z-score) [7]: -0.562
glycan array binding signal (z-score) [8]: 0.453
glycan array binding signal (z-score) [9]: -0.553
glycan array binding signal (z-score) [10]: -0.668
glycan array binding signal (z-score) [11]: -0.818
glycan array binding signal (z-score) [12]: -0.028
glycan array binding signal (z-score) [13]: 0.607
glycan array binding signal (z-score) [14]: -1.04
glycan array binding signal (z-score) [15]: -0.975
glycan array binding signal (z-score) [16]: -0.459
glycan array binding signal (z-score) [17]: 1.56
glycan array binding signal (z-score) [18]: -0.47
glycan array binding signal (z-score) [19]: -0.611
glycan array binding signal (z-score) [20]: -0.648
glycan array binding signal (z-score) [21]: -0.641
glycan array binding signal (z-score) [22]: -0.003
glycan array binding signal (z-score) [23]: -0.938
glycan array binding signal (z-score) [24]: -0.579
glycan array binding signal (z-score) [25]: 1.97
glycan array binding signal (z-score) [26]: -0.761
glycan array binding signal (z-score) (GlcNAc(b1-3)Fuc): -1.4
glycan array binding signal (z-score) (GlcNAc(b1-3)Gal): -1
glycan array binding signal (z-score) [27]: -0.15
